PubChem BioAssay AID1259425 – University of Nebraska Medical Center | 2018
Shown is an unselected part of about 14,000 reagents tested. Not all columns of the deposit are shown. The record does not give: the time to read-out.

Purpose: 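Find knockdowns that reproduce the gene expression pattern seen when KSR1 is lost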 (primary screen)
Cells: HCT116 human colon cancer cells
Knock-down reagent: siRNA pool against human genes, 50 nM siRNA
Detection: 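After 50 nM siRNA pool, branched-DNA assay measures six marker transcripts per well, minus blank, normalised to the geometric mean of two housekeeping transcripts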
Reading the numbers: BNIP3L mRNA: higher = more BNIP3L transcript after knockdown; NDRG1 mRNA: higher = more NDRG1 transcript after knockdown

ACVRL1 (activin A receptor like type 1)
- BNIP3L mRNA, set 1: 0.204
- NDRG1 mRNA, set 1: 0.319

GPR183 (G protein-coupled receptor 183)
- BNIP3L mRNA, set 1: 0.182
- NDRG1 mRNA, set 1: 0.104

SERPINA7 (serpin family A member 7)
- BNIP3L mRNA, set 1: 0.126
- NDRG1 mRNA, set 1: 0.165

PHACTR2 (phosphatase and actin regulator 2)
- BNIP3L mRNA, set 1: 0.102
- NDRG1 mRNA, set 1: 0.218

H3C1 (H3 clustered histone 1)
- BNIP3L mRNA, set 1: 0.036
- NDRG1 mRNA, set 1: 0.614

GJB1 (gap junction protein beta 1)
- BNIP3L mRNA, set 1: 0.0741
- NDRG1 mRNA, set 1: 0.178

ISOC2 (isochorismatase domain containing 2)
- BNIP3L mRNA, set 1: 0.173
- NDRG1 mRNA, set 1: 0.162

PALS1 (protein associated with LIN7 1, MAGUK p55 family member)
- BNIP3L mRNA, set 1: 0.0739
- NDRG1 mRNA, set 1: 0.0885

APLNR (apelin receptor)
- BNIP3L mRNA, set 1: 0.236
- NDRG1 mRNA, set 1: 0.315

PDE8A (phosphodiesterase 8A)
- BNIP3L mRNA, set 1: 0.0405
- NDRG1 mRNA, set 1: 0.282

FLRT2 (fibronectin leucine rich transmembrane protein 2)
- BNIP3L mRNA, set 1: 0.131
- NDRG1 mRNA, set 1: 0.164

ZNF655 (zinc finger protein 655)
- BNIP3L mRNA, set 1: 0.0955
- NDRG1 mRNA, set 1: 0.191
